Test results: PubChem BioAssay AID488832 (National Center for Advancing Translational Sciences (NCATS), 2010)
This list was built around the results that the source calls inconclusive (neither active nor inactive); the mix of calls is not that of the screen. Potencies beside an inconclusive call are fits to weak or partial responses and may not hold up. Active and inactive are the calls of the source. The call rests on the fitted dose curve; in most records, active means well fitted activation curve with a large enough effect; inconclusive means small, poorly fitted or top-dose-only effect; inactive means no such curve, though single readings can be large or run the other way.

Experiment: Confirmation Concentration-Response Assay for Enhancers of SMN2 Splice Variant Expression for Further Probe SAR
Settings: HEK293 SMN2 exon7-luciferase splicing reporter, luminescence, 30-36 h; series mostly up to 46.1 µM
Excerpt: NIH Chemical Genomics Center [NCGC] NIH Molecular Libraries Probe Production centers Network [MLPCN] MLPCN Grant: R03 MH084179-01 Assay Submitter (PI): Elliot Androphy NCGC Assay Overview: Spinal muscular atrophy (SMA) is caused by insufficient levels of the survival motor neuron protein SMN. The SMN locus on chromosome 5q13 contains two inverted copies of SMN called SMN1 and SMN2 which are 99% identical at the amino acid level. SMN1 is a fully functional protein and SMN2 skips exon 7 90% of the time. Skipping of exon 7 produces non-functional protein product. 10% of the SMN2 protein includes exon 7 and is fully functional. In the SMA disease state, mutations in the SMN1 locus are the cause of the disease state. Because only 10% of SMN2 is of the fully functional form, it is not sufficient to overcome the deficiency produced by the loss of the SMN1 product. A therapy that either increase the amount of SMN2 product made or to increase the inclusion of exon 7 has been proposed for the treatment of SMA. We have designed an assay to identify small molecules that can increase the amount of functional SMN2 product by appending a luciferase reporter gene after the native SMN2 gene, such that inclusion of exon 7 in the expressed product places the luciferase sequence in frame, thus generating functional luciferase enzyme.
NCGC Assay Protocol Summary: This screen utilizes a luciferase reporter gene assay, combining the promoter with the major portion of the native SMN2 cDNA (exons 1 -7, intron 8 , exon 8 fused to luciferase) stably expressed in HEK293 cells. Compounds that increase luciferase signal presumably enhance expression of the functional SMN2 splice variant. Passaging media contained DMEM w/ glutamax (+phenol red) 10% FCS, 1x pen/strep, 200 ug/ml hygro, 1x sodium pyruvate. Assay media contained DMEM w/ glutamax (-phenol red) 10% FCS, 1x pen strep, 1x pyruvate Sequence, Parameter, Value, Description (1) Cells, 5 uL, 2000 cells/well, 1536 TC treated White solid bottom plate (2) Time, 10-12 hours, 37C 5% CO2 (3) Compound, 23 nl, MLSMR Library (4) Control Compound, 23 nL, Sodium butyrate st 4.5mM (final) conc (5) Time, 30-36 hours, 37C 5% CO2 (6) Reagent, 3 ul, One Glo (TM) from Promega (7) Time, 5-15 minutes, Room temp (8) Detector, Viewlux: luminescent read, 60 second integration, high speed 2x binning Keywords: Spinal muscular atrophy, SMA, SMN2, high throughput screening, MLSMR, MLPCN, NIH Roadmap, qHTS and NCGC

| SMILES | Potency |
| --- | --- |
| CN(C)c1cccc(-c2nccc(N3CCC(C(N)=O)CC3)n2)c1 | active: 12.2 µM |
| CN(C)c1cccc(-c2ncc(F)c(N3CCC(C(N)=O)CC3)n2)c1 | active: 2.44 µM |
| O=C(NCCc1ccccc1)C1CCN(c2nc(-c3ccc(Br)cc3)cs2)CC1 | inconclusive: 13.7 µM [activator, single point] |
| CN(C)c1ccc(-c2csc(N3CCC(C(N)=O)CC3)n2)cc1 | inconclusive: 77.2 µM [activator, partial curve, poor fit] |
| NC(=O)C1CCN(c2nccc(-c3ccc4c(c3)OCCO4)n2)CC1 | active: 1.09 µM |
